We go through one compound from US8470855B2, “Dual-use peptidase inhibitors as prodrugs for a therapy of inflammatory and other diseases” (IMTM GmbH, priority 2005, dated 2013).

Amino acid sequences for entries named in this document (tags omitted).
UniProt P15145, whole entry: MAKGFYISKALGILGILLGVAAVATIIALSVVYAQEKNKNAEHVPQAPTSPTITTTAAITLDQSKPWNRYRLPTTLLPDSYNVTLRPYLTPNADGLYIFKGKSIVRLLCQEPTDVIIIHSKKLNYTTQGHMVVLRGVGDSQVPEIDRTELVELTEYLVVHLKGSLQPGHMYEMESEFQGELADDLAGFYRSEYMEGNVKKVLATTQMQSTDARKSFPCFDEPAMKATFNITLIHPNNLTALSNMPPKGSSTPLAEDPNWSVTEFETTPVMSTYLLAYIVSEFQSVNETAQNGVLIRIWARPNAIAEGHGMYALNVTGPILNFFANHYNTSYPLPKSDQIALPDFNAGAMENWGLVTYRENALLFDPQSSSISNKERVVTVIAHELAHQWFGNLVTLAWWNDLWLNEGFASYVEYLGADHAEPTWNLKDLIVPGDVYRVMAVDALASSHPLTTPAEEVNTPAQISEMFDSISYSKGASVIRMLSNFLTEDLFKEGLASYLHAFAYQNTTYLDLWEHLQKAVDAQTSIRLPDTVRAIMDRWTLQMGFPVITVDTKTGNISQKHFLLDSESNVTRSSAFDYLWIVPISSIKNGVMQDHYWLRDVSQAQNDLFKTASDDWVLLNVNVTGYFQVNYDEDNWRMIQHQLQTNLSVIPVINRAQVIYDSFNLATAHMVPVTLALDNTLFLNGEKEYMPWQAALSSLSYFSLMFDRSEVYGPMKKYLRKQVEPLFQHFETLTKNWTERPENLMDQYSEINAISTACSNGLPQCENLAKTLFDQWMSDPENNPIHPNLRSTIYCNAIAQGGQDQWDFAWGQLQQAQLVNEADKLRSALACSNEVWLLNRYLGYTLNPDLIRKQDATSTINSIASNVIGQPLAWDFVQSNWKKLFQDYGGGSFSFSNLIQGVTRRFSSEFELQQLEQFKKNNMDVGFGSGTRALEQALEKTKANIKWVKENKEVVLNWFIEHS
UniProt P22411, whole entry: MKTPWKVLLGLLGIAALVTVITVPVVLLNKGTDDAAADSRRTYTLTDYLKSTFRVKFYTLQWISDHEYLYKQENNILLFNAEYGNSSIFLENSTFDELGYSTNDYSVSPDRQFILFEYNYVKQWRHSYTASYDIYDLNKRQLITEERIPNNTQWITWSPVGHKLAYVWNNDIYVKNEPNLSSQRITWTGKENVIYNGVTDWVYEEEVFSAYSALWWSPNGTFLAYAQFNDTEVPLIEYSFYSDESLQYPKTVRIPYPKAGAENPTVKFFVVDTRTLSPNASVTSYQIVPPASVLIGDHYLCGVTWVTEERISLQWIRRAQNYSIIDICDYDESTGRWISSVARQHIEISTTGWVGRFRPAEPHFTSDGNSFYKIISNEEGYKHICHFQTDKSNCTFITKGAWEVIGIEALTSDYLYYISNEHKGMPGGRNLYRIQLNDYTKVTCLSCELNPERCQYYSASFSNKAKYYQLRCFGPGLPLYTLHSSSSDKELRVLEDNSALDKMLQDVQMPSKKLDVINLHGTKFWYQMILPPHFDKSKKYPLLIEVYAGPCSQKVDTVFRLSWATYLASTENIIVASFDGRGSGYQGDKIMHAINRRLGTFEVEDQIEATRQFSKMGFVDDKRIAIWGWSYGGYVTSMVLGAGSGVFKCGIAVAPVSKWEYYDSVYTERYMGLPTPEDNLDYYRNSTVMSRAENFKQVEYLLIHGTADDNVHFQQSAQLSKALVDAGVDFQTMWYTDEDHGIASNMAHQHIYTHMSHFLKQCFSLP

In test [1] the target is APN (Leucin aminopeptidase, microsomal, EC 3.4.11.2) (Sus scrofa, UniProt P15145). Nature of the test: IC50 determination against APN after reduction of the prodrugs with DTT. To be noted: read-out: APN (IC 50 [M]); after release (reduction with DTT) of the inhibitors from the prodrugs; pig kidney enzyme, substrate Leu-AMC, pH 7.2, 30° C. The protocol: (§1) Process of the Reduction with DTT:
(§2) Same volumes of the 7·10^−2 M solution of the inhibitor in water or DMF and a 0.35 M aqueous DTT-solution (5 equivalents) were agitated 4 hours at RT.
(§3) Subsequently to the reductive treatment of the prodrugs the IC50-values were estimated using the following process:
(§4) Determination of the IC50-Values after Reduction:
Leucin aminopeptidase, microsomal, from pig kidney (EC 3.4.11.2).
Suspension in 3.5 M (NH4)2SO4-solution (Sigma).
Substrate: Leu-AMC, [S]=1.5·10^−4 M (2 Km) in the reaction batch.
Buffer: 40 mM Tris/HCl-buffer, pH 7.2 in the reaction batch. […]
60 μl of these inhibitor solutions each or water (standard), were incubated with 80 μl of the according diluted enzymes in buffer for 15 minutes at 30° C. and subsequently 60 μl of the according AMC-substrate in water (total volume 200 μl) were added. The release of the 7-Amino-4-methyl-cumarin was traced continuously over a period of 20 minutes at 30° C. using a fluorence-pladt-reader NOVOstar (BMG Labtechnologies). The enzyme concentration was chosen to give a linear increase of the fluorescence during the measuring period.
The excitation- and emission-wavelengths, respectively, were 390 and 460 nm. […] The turn-over rates (increase of fluorescence/minutes) were plotted against the concentration of the inhibitor and the IC50-values were calculated using the computer program GraFit. […]

Test [2] addresses Dipeptidyl peptidase IV (EC 3.4.14.5.) (Sus scrofa, UniProt P22411). Nature of the test: IC50 determination against DP IV after reduction of the prodrugs with DTT. The settings on record: read-out: DP IV (IC 50 [M]); after release (reduction with DTT) of the inhibitors from the prodrugs; pig kidney enzyme, substrate Ala-Pro-AMC, pH 7.6, 30° C. How it is done:
as §1, §2, §3, §4
Dipeptidyl peptidase IV from pig kidney (EC 3.4.14.5.), lyophilisated powder (Sigma).
Substrate: Ala-Pro-AMC, [S]=3·10^−5 M (2 Km) in the reaction batch.
Buffer: 40 mM Tris/HCl-buffer, pH 7.6, I=0.125 in the reaction batch.
By dilution with water 10 to 12 solutions with defined inhibitor concentration were prepared from the reduction batch. These were selected from a relevant concentration range, i.e. between complete inhibition and non-influenced enzyme activity.
60 μl of these inhibitor solutions each or water (standard), were incubated with 80 μl of the according diluted enzymes in buffer for 15 minutes at 30° C. and subsequently 60 μl of the according AMC-substrate in water (total volume 200 μl) were added. The release of the 7-Amino-4-methyl-cumarin was traced continuously over a period of 20 minutes at 30° C. using a fluorence-pladt-reader NOVOstar (BMG Labtechnologies). The enzyme concentration was chosen to give a linear increase of the fluorescence during the measuring period. […]

The structures appear in SMILES notation. Structures were worked out from names or drawings and are uncertain.

As to `NC(CSSc1ccc(C(=O)NCCCC[C@H](N)C(=O)N2CCSC2)cn1)Cc1ccccc1` (some centres unmarked), the values for the IC50 in test [1] and in test [2] were 1.33e-07 M and 1.25e-07 M, respectively.
